Out of some 52,000 sequences screened, about 210 (0.4%) were called active.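 The calls were made as follows: active = gene whose silencing raises cell survival under the drug, median off-target-corrected z-score across its silencing RNAs 2 or more; inactive = the rest.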 Some of the results follow.
Test: Resistance to Poly (ADP-Ribose) Polymerase inhibitor: Gene Identification via Genome-wide siRNA Screen
Conditions: mouse BRCA2 R2336H ES cells, olaparib, CellTiter-Glo viability; hits give high values
Procedure, shortened: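 Genome-wide siRNA screen (3 siRNAs/gene, 20 nM) in mouse ES cells carrying hypomorphic BRCA2 R2336H; olaparib 500 nM added 48 h post-transfection, CellTiter-Glo viability 72 h later. Normalized to plate-median negative control; MAD z-scores, gene median, seed-adjusted.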

Sequence | z-score
GGAAGGUGGAGAAAAUCCGTT against 4930507C10Rik | inactive: -0.537
GCUCCAGAAUAUAUUGUUCTT against Arfgap3 | inactive: 0.754
CCAGACUGAGAAGAUAUGATT against Meox2 | inactive: 0.236
CCCGGAUAUCCUGUGUCUUTT against 1110030H02Rik | inactive: 1.31
GGGUACGUGAAGAAACUUCTT against Meig1 | inactive: 0.414
CGAAAUUCGGAAUGUAUAUTT against Tnp1 | inactive: -0.344
GCCAAGUUCAUCAAGAAGCTT against Dapk3 | inactive: -0.719
GGCAUUAUCACAUAAAGGATT against Tec | inactive: 0.209
GGUAGAGAGCUCAACAGGGTT against Klrb1c | inactive: 0.357
GGACCGGUGUAAGCUUCGATT against AA589481 | inactive: 1.25
GCAAAUCAUGACUAUUGUATT against 2610110G12Rik | inactive: -1.88
GGCCAUUUAUCCAUGGUUGTT against Zdhhc17 | inactive: 0.743
GCAAGACGCACUGUUACUGTT against BC031353 | inactive: -1.42
GCAUUACUAUGACCGAUCCTT against Magea4 | inactive: -1.2
GCGAUGGAUUGUAAAAUUATT against Defb1 | inactive: -0.405
GCAGGCCUUGUAUAGUGUGTT against Ccar1 | inactive: 0.392
GGAGAAUGCACAGUUCACUTT against Krt1-16 | inactive: -0.416
GCCAAGCAUAAUCUAAUGATT against Prpf4b | inactive: -0.377
GCCGAACUGUCAGUACUUCTT against Nov | inactive: 0.0205
GGAAAUUAUUCCAAGGUCUTT against D5Wsu46e | inactive: -1.09
CCUAUCAUAACGGUGAUAATT against Ddb1 | inactive: -2.06
GGUCCAGCACGUCAAAGACTT against Myo1f | inactive: -0.784
GGAUAAACAACAAUGAGAATT against Btg4 | inactive: -0.353
GCACCUAAGUAAGAUUUGATT against 2310001N14Rik | inactive: -0.962
GGCUAUUUCUACCUGUAUCTT against Otop2 | inactive: -0.777
GGCAUAUUGUUUCAUUUUGTT against Rlbp1 | inactive: 0.621

Sequence | z-score
GGCAGGCUGUUUGAUCAAGTT against Cyp2a12 | inactive: -0.649
GGCUGUGUAUGCUGAUGUCTT against Cops7a | inactive: -1.83
CCAACUCGUUAUCACUAUATT against 1700001D09Rik | inactive: -0.0393
GCAACUUUUAAUUGGUCUATT against Agrn | inactive: 1.42
CGUGGUCAGUAAGAUUUAUTT against Rragd | inactive: 0.901
GCCAUUAAGGAAAUGUUCUTT against Olfr426 | inactive: -1.34
GCGAGACAAUUGUUAUUGATT against Zfp198 | inactive: -0.48
GGAAGUUUUUGAGAAUGGGTT against Ppp3cc | inactive: 1.72
CCUACUGUGCAUAGGUCUCTT against Tm4sf7 | inactive: -0.303
GGACAGGCAGAGUUUACAGTT against Rit1 | inactive: 1.04
CGGAUAACGGGAAUUUUAUTT against Rpia | inactive: 0.76
GGCUAUCUGAUUUUUGUUGTT against Cias1 | inactive: 0.868
GCAUUUCCCAUCCUCUUGATT against Mrpl51 | inactive: -2.97
GCUCAGUAAGGUUACUUCCTT against Epb4.9 | inactive: 0.857
GGAGGUAGCCCUUCAGAUGTT against Punc | inactive: -2.56
CGAGUAAGUUCAAUAGACCTT against Olfr954 | inactive: 1.22
GGUAUUAGAAAUCCUGAUCTT against Miz1 | inactive: -0.33
GGCUUUCGCCUGAUUGGGUTT against 9130416B15 | inactive: 1.27
GGACAAGUUCAGCUACAUCTT against Ranbp9 | inactive: 0.141
GCUCCUACUGUCCAGCAAUTT against Dusp18 | inactive: 2.63
GGGAUAUAGAACUGUUGAUTT against Olfr1048 | inactive: -0.278
GCUAGUCUAGCCAUUGUCATT against Lamp3 | inactive: -0.634
GCCCUCUUGUGAUUAAGCATT against Esr1 | inactive: 0.0447
CCAUCAGCCUUUAUAAACUTT against Ywhah | inactive: 0.577
GGUGAUAUCUUUCCAUCUUTT against Wiz | inactive: 0.462
GGACCAUGCUCCCUACUUATT against 1700016G05Rik | inactive: -1.63

Sequence | z-score
GGAAGAAGAGGAGGAGAUGTT against Zfp67 | inactive: -0.941
GGCAUUCACGUGUACUCCUTT against Pres | inactive: 0.478
GGACGAGUGCCUGUUUUCATT against Med8 | inactive: -0.587
CCAUGGAAACUGAAUUCUGTT against 3230401I01Rik | inactive: 0.382
GGACAUAGAAUCUUUACAGTT against Wdr9 | inactive: -0.592
CCUAAACUGCUUGCUGAUATT against Olfr1204 | inactive: 0.755
GUGCUAUUCAUGCACAGCATT against Psca | inactive: -1.7
CGGUGAAAAACCUAUGUAUTT against 1700028P14Rik | inactive: 0.894
GCUCUUAGAUACAGUUUUATT against Aprin | inactive: -0.724
GGAAUGCUAUGUGUAUAGUTT against 9130023D20Rik | inactive: 1.07
GGUUUGAGCAACUAACUAATT against Lhx2 | inactive: 1.05
CCAAUGAGAGUUCUAUGAUTT against Cxxc4 | inactive: -0.54
GGAUCAAAUGUGGCAUAUUTT against Rassf5 | inactive: -1.64
GCCUUUGCGUUAUGCUACUTT against Olfr610 | inactive: -1.02
GGCACUGCAUAUUUGGUAUTT against Dmrtc2 | inactive: -0.914
GGUAAUCAGUAGUGACUUATT against Mkln1 | inactive: 0.498
GGCAUCAUACUGAUUGGUGTT against Suclg1 | inactive: 0.058
GGUCCUCAUUUAUUGAAAUTT against Cdkn1b | inactive: 0.481
GGACCUCUUCUCUGUCUUUTT against 2300004C15Rik | inactive: -1.27
GGCCCUUACAGAGUCUGGATT against B930095G15Rik | inactive: -1.39
GGCUUCCUGAUGGAUUUAUTT against Stk11ip | inactive: -2.01
GCAAUGGUGAGCAUUAAAATT against 2010002M12Rik | inactive: 0.458
GGACAAUGAAGAUUUGGAATT against Ush2a | inactive: 0.208
CCAAGAAGCUCCCACGAUATT against Gm839 | inactive: 0.641
CGGCCUGGGUCCCGUGGACTT against LOC328779 | inactive: 2.22
CCACAUUCAGCCAAUGAAGTT against Olfr195 | inactive: -0.0256

Reprinted from the entries so far (5 entries):
Sequence | z-score
CCAUGGAAACUGAAUUCUGTT against 3230401I01Rik | inactive: 0.382
GGACAUAGAAUCUUUACAGTT against Wdr9 | inactive: -0.592
CCUAAACUGCUUGCUGAUATT against Olfr1204 | inactive: 0.755
GUGCUAUUCAUGCACAGCATT against Psca | inactive: -1.7
CGGUGAAAAACCUAUGUAUTT against 1700028P14Rik | inactive: 0.894

Continued:

Sequence | z-score
GGUGUAUGAACAGCUCUAUTT against Lin7b | inactive: 0.263
GGGCUCCUCAAUCACAAAUTT against Slc27a5 | inactive: -0.504
CGUGGCCGUUAGUUGUAAATT against BC059177 | inactive: 0.289
GGGAUUGAGAUCCUCAUACTT against Olfr1179 | inactive: 0.762
GCUCCAAUAGCGUAUAUUATT against Pigt | inactive: -1.62
GGUCAUAGCUUAGAAGGUGTT against Rhov | inactive: -1.09
GGACCAUAAAACAAGUAUCTT against AI790298 | inactive: -0.629
GCAAUACGUUUGUGCAGAATT against Cacna1g | inactive: -2.42
GCAGUAAACUCCUAGGUCATT against 2410066E13Rik | inactive: -0.601
CCUUCAGACUGUCAACAAUTT against Chrm2 | inactive: 0.451
GGAUGGGUUGAAUUGUUUGTT against C730040N12Rik | inactive: -0.104
GGAAGGUCAAAGUCCUUUATT against Pitpnm2 | inactive: 1.18
GCCUGUUUAGAGCGUAAACTT against Numb | inactive: 0.888
GGCUACAAUAAUGUUUCCCTT against Pglyrp3 | inactive: 0.155
GGCUUCCACAAAGAAAGACTT against Tsga8 | inactive: 0.591
GGUGUACAUGGACAUCAAGTT against Ppie | inactive: 1.39
GGCAGAUAGACAACUUUCUTT against Olfr92 | inactive: -1.19
GGGUUAGCUCCCGUCAUCATT against 9830132G07Rik | inactive: 0.867
GGCCAACUGGUAUUUCUUGTT against Acadm | inactive: -0.486
GGAAAUGAAGCAGACUGUGTT against Htr2b | inactive: 0.262
GCCGGGCAAUGAAUUUACUTT against Ms4a5 | inactive: 2.39
CCCUGAAGUGUAACUUCAATT against BC055811 | inactive: 0.103
GGAGACUCAUCCAAUAAAUTT against V2r1b | inactive: -0.0936
GGCAAUUCUCUGUAUCCACTT against LOC223706 | inactive: -0.0335
GCCCUUGAAGAUCAUUAGCTT against 2810443J12Rik | inactive: -0.0762
CCCUAAGUCCGUUAAUGUUTT against Wdhd1 | inactive: 0.00913

— PubChem BioAssay AID1347423 (Functional Genomics Laboratory (NCATS/FGL), 2020)
